According to PubChem BioAssay AID504834 (National Center for Advancing Translational Sciences (NCATS), 2011):
In all, about 320,000 compounds went through this assay and about 22,000 (6.9%) were called active. This list was built around the results that the source calls inconclusive (neither active nor inactive); the mix of calls is not that of the screen. Calls follow the shape of the dose curve; as a rule, active = well fitted inhibition curve with a large enough effect; inconclusive = small, poorly fitted or top-dose-only effect, or another doubt; inactive = no such curve, though single readings can be large or run the other way. Potencies beside an inconclusive call are fits to weak or partial responses and may not hold up.

test: Primary qHTS for delayed death inhibitors of the malarial parasite plastid, 96 hour incubation; conditions: P. falciparum luciferase reporter growth; series mostly up to 28.7 µM
Summary of the method: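 Erythrocytes infected with luciferase-expressing P. falciparum were dispensed at 2% hematocrit and 0.05% parasitemia (final), then incubated with compounds 96 hours at 37 C in 5% CO2. Luminescence after detection reagent addition reported growth.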
% is scaled to controls: 0 for no effect and ±100 for the full control effect; potency is read from the fitted curve at half-maximal effect.

| Structure (SMILES) | Potency | activity change, negative = inhibition |
| --- | --- | --- |
| O=C(c1oc(=O)c2ccccc2c1-c1ccccc1)N1CCOCC1 | inconclusive: 18.5 µM [inhibitor, single point] |  |
| O=C(NCC(=O)N1CCN(Cc2ccccc2)CC1)c1ccc(Br)cc1 | inactive |  |
| CCCCCc1ccc(CC(=O)N2CCOCC2)cc1 | inactive |  |
| O=C(Cc1c(F)cccc1Cl)Nc1nc2ccccc2s1 | inactive |  |
| COc1cccc(N2CCN(C(=O)CC(NC(=O)c3ccccc3)c3ccccc3)CC2)c1 (configuration not stated) | inconclusive: 10.4 µM [inhibitor, single point] |  |
| CN(C)CCN(C(=O)c1ccc(S(=O)(=O)N2CCCC2)cc1)c1nc2ccc(Br)cc2s1 | inconclusive: 18.5 µM [inhibitor, single point] |  |
| CCCCOC(=O)c1ccc(N/C(=N\S(=O)(=O)c2ccccc2)c2ccccc2)cc1 | inconclusive: 18.5 µM [inhibitor, single point] |  |
| O=[N+]([O-])c1ccccc1SNc1ccc(Br)cn1 | inconclusive: 2.33 µM [inhibitor, single point] |  |
| CC[C@H]1OC(=O)[C@H](C)[C@@H](O[C@H]2C[C@@](C)(OC)[C@@H](O)[C@H](C)O2)[C@H](C)[C@@H](O[C@@H]2O[C@H](C)C[C@H](N(C)C)[C@H]2O)[C@](C)(O)C[C@@H](C)[C@@H]2N[C@@H](COCCOC)O[C@H]([C@H]2C)[C@]1(C)O | inconclusive: 16.5 µM [inhibitor, single point] |  |
| COCCCNC(=O)C(Cc1ccccc1)NS(=O)(=O)c1ccc2c(c1)c(=O)n(C)c(=O)n2C (configuration not stated) | inconclusive: 8.28 µM [inhibitor, partial curve, poor fit] |  |
| COc1ccc2[nH]c(=O)c(CN(C(=O)c3ccncc3)C(C)(C)C)cc2c1 | inconclusive: 16.5 µM [inhibitor, partial curve, poor fit] |  |
| CN1CCN(S(=O)(=O)c2ccc(Sc3nnc(-c4cccs4)n3-c3ccccc3)nc2)CC1 | inconclusive: 9.28 µM [inhibitor, partial curve] |  |
| O=C(CN1CCCCC1)N1CCN(S(=O)(=O)c2ccccc2)C1 | inconclusive: 6.57 µM [inhibitor, partial curve, poor fit] |  |
| O=C(Nc1nncs1)c1cc(S(=O)(=O)N2CCOCC2)ccc1Cl | inconclusive: 11.7 µM [inhibitor, single point] |  |
| O=C(C1=C[C@@H](C2CCCCC2)C[C@@H](OCCCCO)O1)N1CCN(Cc2ccc3c(c2)OCO3)CC1 | active: 6.57 µM |  |
| N=c1oc2ccccc2cc1C(=O)Nc1ccccc1 | inconclusive: 4.15 µM [inhibitor, single point] |  |
| Cc1nc2cc(NCc3ccc(Cl)cc3)ccc2n1C | inactive |  |
| Cc1cc(C)c(S(=O)(=O)c2cccc(C)c2C)c(=O)[nH]1 | inactive |  |
| NC(=S)N/N=C1\CC(c2ccc3c(c2)OCCO3)Oc2ccc(F)cc21 (configuration not stated) | active: 11.7 µM |  |
| CCN(CC)C(=O)Cn1c(=O)n(C)c2ccccc21 | inactive |  |
| COc1ccc(C(=O)N=c2sc3c(C)ccc(OC)c3n2C)cc1OC | inactive |  |
| CCCN(C(=O)COC(=O)CCOc1ccccc1)c1c(N)n(Cc2ccccc2)c(=O)[nH]c1=O | inconclusive: 13.1 µM [inhibitor, partial curve, poor fit] |  |
| Clc1ccccc1-c1nnc2sc(C3COc4ccccc4O3)nn12 (configuration not stated) | inconclusive: 5.86 µM [inhibitor, partial curve, poor fit] |  |

Rewritten as labelled records: part of the list above
O=C(c1oc(=O)c2ccccc2c1-c1ccccc1)N1CCOCC1
  Potency: inconclusive: 18.5 µM [inhibitor, single point]
CN(C)CCN(C(=O)c1ccc(S(=O)(=O)N2CCCC2)cc1)c1nc2ccc(Br)cc2s1
  Potency: inconclusive: 18.5 µM [inhibitor, single point]
Cc1nc2cc(NCc3ccc(Cl)cc3)ccc2n1C
  Potency: inactive

(listing goes on)

| Structure (SMILES) | Potency | activity change, negative = inhibition |
| --- | --- | --- |
| O=C(CN1C(=O)NC(c2ccccc2)(c2ccccc2)C1=O)N1CCN(c2ccc(F)cc2)CC1 | inconclusive: 11.7 µM [inhibitor, partial curve] |  |
| N#Cc1ccc(OCC(=O)N2CCN(c3ccc(C(F)(F)F)cn3)CC2)cc1 | active: 4.15 µM |  |
| COc1ccccc1CN1CCC(n2nccc2NC(=O)c2ccccc2Cl)CC1 | inconclusive: 10.4 µM [inhibitor, single point] |  |
| CC1CCN(Cc2nnnn2CCCC(=O)NCCc2cnn(C)c2)CC1 | inconclusive: 3.29 µM [inhibitor, single point] |  |
| CN(C)c1ccc(C(=S)N2CCOCC2)cc1 | inconclusive: 5.86 µM [inhibitor, partial curve, poor fit] |  |
| C/C=C/c1ccc(OCCOc2cccc3cccnc23)c(OC)c1 | inactive |  |
| CN(C)c1ccc(/C=N/n2ncc3ccccc32)cc1 | inconclusive: 18.5 µM [inhibitor, single point] |  |
| C=CCn1c(SCc2ccccc2)nnc1-c1cccnc1 | inconclusive: 5.22 µM [inhibitor, partial curve] |  |
| COc1ccc(Cc2noc(CN(C)CC3CCN(Cc4ccccc4)CC3)n2)cc1OC | inconclusive: 16.5 µM [inhibitor, partial curve, poor fit] |  |
| O=C1CC2(CCCC2)CC(=O)N1CCCCN1CCN(c2ncccn2)CC1 | inconclusive: 1.69 µM [inhibitor, partial curve, poor fit] |  |
| c1ccc2cc(OCCCn3ccnc3)ccc2c1 | inconclusive: 18.5 µM [inhibitor, single point] |  |
| Cc1ccc(C2NC(=O)c3c(sc4c3CCN(C)C4)N2)s1 (configuration not stated) | inconclusive: 18.5 µM [inhibitor, single point] |  |
| COC(=O)c1nc(NC2=NCCCCC2)n[nH]1 | inconclusive: 18.5 µM [inhibitor, single point] |  |
| Cc1c(NC(=O)CN2c3cccc4cccc(c34)S2(=O)=O)c(=O)n(-c2ccccc2)n1C | inactive |  |
| O=C(CN1CCCc2ccccc21)N1CCc2ccccc21 | inactive |  |
| Cc1cccc(N2CC(C(=O)Nc3nnc(SCc4ccccn4)s3)CC2=O)c1 (configuration not stated) | inconclusive: 2.33 µM [inhibitor, full curve, poor fit] |  |
| COc1cc(/C=N/NC(=O)c2cc(-c3ccc4c(c3)OCO4)n[nH]2)ccc1O | inconclusive: 18.5 µM [inhibitor, single point] |  |
| Fc1ccc(C2CC(c3ccco3)=Nc3ccccc3S2)cc1 (configuration not stated) | inactive |  |
| Cc1[nH]c(C(=O)O)c(C)c1C(=O)OC(C)C |  | inactive: -4.14% [at 5.75 µM] |
| Cc1ccc(-n2nc3c(=O)n(C(C)C(=O)NCc4ccc(Cl)cc4)nc(C)c3c2C)cc1 (configuration not stated) | active: 1.65 µM |  |
| CC(=O)c1ccc(OC(=O)N2CCOCC2)cc1 | inconclusive: 2.94 µM [inhibitor, partial curve, poor fit] |  |
| COc1ccc(S(=O)(=O)N2CCC(C(=O)NCCC(=O)NCc3cccc(OC)c3)CC2)cc1 | inconclusive: 18.5 µM [inhibitor, single point] |  |
| CC1CCCCC1NC(=O)c1cc2ccccc2o1 (configuration not stated) | inconclusive: 13.1 µM [inhibitor, single point] |  |

| Structure (SMILES) | Potency | activity change, negative = inhibition |
| --- | --- | --- |
| CN(C)C(=O)CN1CCN(Cc2nc(CC3CC3)no2)CC1 | inactive |  |
| CCCS(=O)(=O)N1CCCC(c2nc(-c3cccc(OC)c3)no2)C1 (configuration not stated) | inactive |  |
| CN(C(=O)COC(=O)c1nc(-c2ccccc2)n(-c2ccccc2)n1)C1CCS(=O)(=O)C1 (configuration not stated) | inactive |  |
| COc1ccccc1C(=O)NCc1n[nH]c(=S)n1Cc1ccccc1 | inconclusive: 0.415 µM [inhibitor, partial curve, poor fit] |  |
| O=C1C2CSCN2C(=O)CN1CCCN1CCN(C(c2ccccc2)c2ccccc2)CC1 (configuration not stated) | inconclusive: 18.5 µM [inhibitor, single point] |  |
| CCOc1cc(/C=N/NC(=O)c2cccs2)ccc1OC(=O)N1CCOCC1 | inactive |  |
| CCCCNC(=O)c1cc(-c2ccc(OC)cc2)on1 | inconclusive: 9.28 µM [inhibitor, partial curve, poor fit] |  |
| c1ccc2sc(N3CCCN(Cc4nc(-c5cnccn5)no4)CC3)nc2c1 | inconclusive: 18.5 µM [inhibitor, partial curve, poor fit] |  |
| COC(=O)CSc1nc(C)cc(N2CCOCC2)n1 | inactive |  |
| O=C(Nc1cccnc1)c1ccc(Cl)c([N+](=O)[O-])c1 | inconclusive: 0.329 µM [inhibitor, full curve, poor fit] |  |
| c1ccc2c(Nc3ccc4c(c3)OCCO4)c3c(nc2c1)CCC3 | inactive |  |
| O=C(c1ccc(=O)[nH]n1)N1CCN(S(=O)(=O)c2ccc(C(F)(F)F)cc2)CC1 | inconclusive: 10.4 µM [inhibitor, partial curve, poor fit] |  |
| CC(=O)n1cc([C@@H]2C=C(C(=O)NCc3ccccc3)O[C@H](OCc3ccc(CO)cc3)C2)c2ccccc21 | active: 5.22 µM |  |
| CCCNC(=O)CS(=O)Cc1nc(-c2cccc(OC)c2)oc1C (configuration not stated) | inconclusive: 5.22 µM [inhibitor, partial curve, poor fit] |  |
| CN1CC(C(=O)c2ccc(Cl)cc2)C(c2ccccc2F)C1 (configuration not stated) | inconclusive: 1.04 µM [inhibitor, partial curve, poor fit] |  |
| CC(C)(C)c1ccc(/C=N/N2CCN(c3ccccn3)CC2)cc1 | inactive |  |
| COc1cccc2cc(C(=O)N(C)C3CCN(C)CC3)c(=O)oc12 | inactive |  |
| CCOC(=O)N1CCN(C(=O)COC(=O)CN(C)S(=O)(=O)c2ccc(NC(C)=O)cc2)CC1 | inconclusive: 16.5 µM [inhibitor, single point] |  |
| CCOc1ccccc1/C=N/NC(=O)CSc1n[nH]c(=O)[nH]c1=O | inconclusive: 0.522 µM [inhibitor, full curve, poor fit] |  |
| O=C(CSc1ccc(Cl)cc1)NCc1ccco1 | inconclusive: 13.1 µM [inhibitor, single point] |  |
| COc1ccc(C2(C(F)(F)F)NC(=O)N(C)C(=O)N2C)cc1 (configuration not stated) | inconclusive: 16.5 µM [inhibitor, partial curve, poor fit] |  |
